Results on 33 targets are retold here after the supplement of paper PMC12819154, “High-throughput peptide-centric local stability assay extends protein–ligand identification to membrane proteins, tissues and bacteria” (Nature Structural & Molecular Biology, 2025).

Chains of the proteins cited; added tags and fusions are not shown. Lines headed by an entry give the natural chain unless they say otherwise; changes in a name come on top.
UniProt F8VPK0, whole entry: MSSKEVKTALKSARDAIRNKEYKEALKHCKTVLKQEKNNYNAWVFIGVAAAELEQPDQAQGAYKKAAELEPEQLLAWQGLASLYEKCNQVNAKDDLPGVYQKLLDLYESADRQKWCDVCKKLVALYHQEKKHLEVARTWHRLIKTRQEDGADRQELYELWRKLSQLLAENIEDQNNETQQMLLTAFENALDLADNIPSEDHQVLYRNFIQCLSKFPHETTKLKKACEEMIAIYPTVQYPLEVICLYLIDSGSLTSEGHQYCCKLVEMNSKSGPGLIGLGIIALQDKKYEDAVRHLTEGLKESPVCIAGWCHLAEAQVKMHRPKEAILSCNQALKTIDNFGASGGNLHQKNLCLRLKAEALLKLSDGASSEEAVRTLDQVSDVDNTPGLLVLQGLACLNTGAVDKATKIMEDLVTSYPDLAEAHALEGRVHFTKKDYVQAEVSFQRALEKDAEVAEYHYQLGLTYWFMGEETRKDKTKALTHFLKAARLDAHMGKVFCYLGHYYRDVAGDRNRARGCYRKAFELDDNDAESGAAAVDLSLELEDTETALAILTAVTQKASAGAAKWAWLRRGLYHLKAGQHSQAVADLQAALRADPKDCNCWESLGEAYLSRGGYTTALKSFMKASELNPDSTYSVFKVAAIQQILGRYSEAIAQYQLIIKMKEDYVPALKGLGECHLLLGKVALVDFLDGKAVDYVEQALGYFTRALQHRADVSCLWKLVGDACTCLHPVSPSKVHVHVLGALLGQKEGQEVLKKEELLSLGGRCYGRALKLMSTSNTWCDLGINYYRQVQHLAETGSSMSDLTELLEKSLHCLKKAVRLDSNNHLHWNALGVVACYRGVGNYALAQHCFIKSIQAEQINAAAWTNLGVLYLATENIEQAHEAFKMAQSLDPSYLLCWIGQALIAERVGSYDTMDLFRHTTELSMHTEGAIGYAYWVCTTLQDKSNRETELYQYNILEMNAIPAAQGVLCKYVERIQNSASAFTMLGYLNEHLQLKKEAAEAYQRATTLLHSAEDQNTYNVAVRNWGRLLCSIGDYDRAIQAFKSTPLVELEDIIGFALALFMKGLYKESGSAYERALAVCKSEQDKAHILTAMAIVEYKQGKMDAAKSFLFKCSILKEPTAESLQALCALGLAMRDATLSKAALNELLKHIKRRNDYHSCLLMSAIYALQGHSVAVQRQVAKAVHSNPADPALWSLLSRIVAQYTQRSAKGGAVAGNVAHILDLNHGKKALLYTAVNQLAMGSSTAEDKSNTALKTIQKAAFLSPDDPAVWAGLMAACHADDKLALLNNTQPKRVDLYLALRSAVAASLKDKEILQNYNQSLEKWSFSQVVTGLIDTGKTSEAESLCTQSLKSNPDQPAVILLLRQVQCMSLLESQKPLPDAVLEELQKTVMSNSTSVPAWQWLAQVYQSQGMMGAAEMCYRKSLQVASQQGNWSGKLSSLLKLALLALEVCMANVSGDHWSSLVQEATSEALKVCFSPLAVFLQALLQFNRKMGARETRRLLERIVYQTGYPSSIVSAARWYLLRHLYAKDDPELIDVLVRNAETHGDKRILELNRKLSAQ
UniProt A2APT9: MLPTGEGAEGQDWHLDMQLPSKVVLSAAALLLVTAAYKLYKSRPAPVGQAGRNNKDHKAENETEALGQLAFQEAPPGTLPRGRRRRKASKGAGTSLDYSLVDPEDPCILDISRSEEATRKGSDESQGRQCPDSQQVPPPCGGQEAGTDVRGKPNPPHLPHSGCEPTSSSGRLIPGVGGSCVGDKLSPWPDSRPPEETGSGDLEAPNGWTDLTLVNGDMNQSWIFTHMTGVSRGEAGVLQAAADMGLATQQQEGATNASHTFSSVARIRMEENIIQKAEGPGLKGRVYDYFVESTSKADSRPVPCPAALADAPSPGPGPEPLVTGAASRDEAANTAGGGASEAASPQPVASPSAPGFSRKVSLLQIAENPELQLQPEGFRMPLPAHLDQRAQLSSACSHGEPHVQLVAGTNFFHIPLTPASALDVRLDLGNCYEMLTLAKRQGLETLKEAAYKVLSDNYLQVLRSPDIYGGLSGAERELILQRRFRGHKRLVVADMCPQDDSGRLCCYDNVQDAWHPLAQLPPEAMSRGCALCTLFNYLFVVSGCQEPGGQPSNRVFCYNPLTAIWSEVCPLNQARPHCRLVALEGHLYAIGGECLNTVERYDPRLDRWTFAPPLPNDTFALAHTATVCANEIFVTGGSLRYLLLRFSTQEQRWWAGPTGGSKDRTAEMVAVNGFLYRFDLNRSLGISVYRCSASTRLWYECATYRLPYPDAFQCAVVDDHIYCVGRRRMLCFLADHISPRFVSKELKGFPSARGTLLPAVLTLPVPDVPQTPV
UniProt B1ARW8: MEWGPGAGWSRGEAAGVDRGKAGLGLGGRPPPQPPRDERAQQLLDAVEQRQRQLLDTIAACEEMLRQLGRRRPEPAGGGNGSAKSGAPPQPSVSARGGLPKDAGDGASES
UniProt E9PV24: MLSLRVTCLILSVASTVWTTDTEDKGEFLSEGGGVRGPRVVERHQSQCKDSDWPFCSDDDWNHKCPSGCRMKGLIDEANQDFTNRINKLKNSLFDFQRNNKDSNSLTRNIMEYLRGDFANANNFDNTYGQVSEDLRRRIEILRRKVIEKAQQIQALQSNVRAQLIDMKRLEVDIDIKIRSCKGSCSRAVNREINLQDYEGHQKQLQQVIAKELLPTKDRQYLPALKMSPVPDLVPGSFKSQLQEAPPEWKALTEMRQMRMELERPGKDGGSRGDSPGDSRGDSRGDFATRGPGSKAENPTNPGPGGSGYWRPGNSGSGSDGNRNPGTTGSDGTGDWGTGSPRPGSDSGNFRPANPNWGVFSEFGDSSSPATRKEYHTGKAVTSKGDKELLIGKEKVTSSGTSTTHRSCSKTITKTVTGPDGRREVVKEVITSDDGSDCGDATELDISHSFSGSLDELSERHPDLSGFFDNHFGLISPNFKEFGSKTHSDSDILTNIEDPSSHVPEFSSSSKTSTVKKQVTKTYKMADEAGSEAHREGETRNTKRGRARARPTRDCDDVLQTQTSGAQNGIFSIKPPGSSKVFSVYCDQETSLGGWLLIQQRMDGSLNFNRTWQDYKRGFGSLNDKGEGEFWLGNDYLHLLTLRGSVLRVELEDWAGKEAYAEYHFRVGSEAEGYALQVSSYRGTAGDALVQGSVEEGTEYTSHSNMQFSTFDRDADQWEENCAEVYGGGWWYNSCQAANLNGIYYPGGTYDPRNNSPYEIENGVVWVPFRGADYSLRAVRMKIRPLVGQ
UniProt B1AZP2: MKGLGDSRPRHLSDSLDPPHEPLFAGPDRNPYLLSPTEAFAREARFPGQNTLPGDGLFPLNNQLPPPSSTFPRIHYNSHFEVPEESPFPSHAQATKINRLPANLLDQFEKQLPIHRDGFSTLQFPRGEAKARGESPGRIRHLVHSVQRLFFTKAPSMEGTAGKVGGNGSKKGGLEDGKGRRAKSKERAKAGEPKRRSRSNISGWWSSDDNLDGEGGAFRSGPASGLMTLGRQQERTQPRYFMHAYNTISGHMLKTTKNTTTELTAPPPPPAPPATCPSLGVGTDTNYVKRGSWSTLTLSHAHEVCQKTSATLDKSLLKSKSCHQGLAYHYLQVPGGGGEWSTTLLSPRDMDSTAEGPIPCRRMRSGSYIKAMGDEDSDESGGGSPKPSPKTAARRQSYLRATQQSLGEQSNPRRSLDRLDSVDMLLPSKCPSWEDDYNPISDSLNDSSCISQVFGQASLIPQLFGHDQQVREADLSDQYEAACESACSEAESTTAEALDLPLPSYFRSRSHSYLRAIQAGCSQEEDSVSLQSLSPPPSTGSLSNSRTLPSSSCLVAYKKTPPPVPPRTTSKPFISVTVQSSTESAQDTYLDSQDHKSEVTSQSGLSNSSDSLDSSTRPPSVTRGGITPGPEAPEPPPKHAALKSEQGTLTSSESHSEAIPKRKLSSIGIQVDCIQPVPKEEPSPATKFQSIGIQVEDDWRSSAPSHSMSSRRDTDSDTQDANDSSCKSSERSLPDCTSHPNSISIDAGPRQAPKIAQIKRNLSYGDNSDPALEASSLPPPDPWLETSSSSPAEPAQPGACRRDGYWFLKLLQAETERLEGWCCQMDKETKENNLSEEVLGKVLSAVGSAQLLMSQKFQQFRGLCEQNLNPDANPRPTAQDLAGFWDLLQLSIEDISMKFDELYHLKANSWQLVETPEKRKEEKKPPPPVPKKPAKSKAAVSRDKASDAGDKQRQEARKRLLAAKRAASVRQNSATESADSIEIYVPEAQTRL
UniProt E9PVB5: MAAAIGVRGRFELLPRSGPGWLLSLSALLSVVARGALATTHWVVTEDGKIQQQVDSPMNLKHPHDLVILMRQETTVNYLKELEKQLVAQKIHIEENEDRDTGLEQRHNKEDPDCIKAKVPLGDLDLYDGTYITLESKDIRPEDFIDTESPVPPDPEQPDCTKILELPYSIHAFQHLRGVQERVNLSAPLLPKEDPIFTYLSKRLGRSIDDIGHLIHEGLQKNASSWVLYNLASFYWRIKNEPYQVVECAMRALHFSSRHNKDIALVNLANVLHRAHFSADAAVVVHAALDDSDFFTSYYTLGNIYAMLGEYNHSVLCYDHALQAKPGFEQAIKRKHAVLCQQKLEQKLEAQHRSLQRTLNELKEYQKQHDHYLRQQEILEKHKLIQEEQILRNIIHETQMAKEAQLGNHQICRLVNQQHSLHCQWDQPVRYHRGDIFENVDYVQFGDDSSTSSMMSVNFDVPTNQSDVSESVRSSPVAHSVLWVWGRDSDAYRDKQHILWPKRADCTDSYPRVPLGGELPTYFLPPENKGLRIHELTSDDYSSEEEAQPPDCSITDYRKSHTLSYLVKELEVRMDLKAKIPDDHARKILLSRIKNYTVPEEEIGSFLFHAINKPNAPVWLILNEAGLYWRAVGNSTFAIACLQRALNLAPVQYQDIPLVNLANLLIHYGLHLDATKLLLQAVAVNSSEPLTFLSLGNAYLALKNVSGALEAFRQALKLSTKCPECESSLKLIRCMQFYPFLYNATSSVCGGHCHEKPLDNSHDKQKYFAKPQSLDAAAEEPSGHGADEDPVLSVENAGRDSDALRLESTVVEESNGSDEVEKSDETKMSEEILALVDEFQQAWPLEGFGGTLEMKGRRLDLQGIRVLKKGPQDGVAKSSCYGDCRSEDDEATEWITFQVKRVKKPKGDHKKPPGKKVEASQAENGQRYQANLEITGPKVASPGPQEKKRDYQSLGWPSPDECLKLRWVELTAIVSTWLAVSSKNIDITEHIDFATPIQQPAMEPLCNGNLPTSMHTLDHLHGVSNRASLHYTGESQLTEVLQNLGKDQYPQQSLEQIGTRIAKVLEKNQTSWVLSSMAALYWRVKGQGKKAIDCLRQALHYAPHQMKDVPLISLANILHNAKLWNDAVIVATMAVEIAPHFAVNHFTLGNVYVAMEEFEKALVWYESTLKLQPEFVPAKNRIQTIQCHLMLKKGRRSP
UniProt E9Q5C9: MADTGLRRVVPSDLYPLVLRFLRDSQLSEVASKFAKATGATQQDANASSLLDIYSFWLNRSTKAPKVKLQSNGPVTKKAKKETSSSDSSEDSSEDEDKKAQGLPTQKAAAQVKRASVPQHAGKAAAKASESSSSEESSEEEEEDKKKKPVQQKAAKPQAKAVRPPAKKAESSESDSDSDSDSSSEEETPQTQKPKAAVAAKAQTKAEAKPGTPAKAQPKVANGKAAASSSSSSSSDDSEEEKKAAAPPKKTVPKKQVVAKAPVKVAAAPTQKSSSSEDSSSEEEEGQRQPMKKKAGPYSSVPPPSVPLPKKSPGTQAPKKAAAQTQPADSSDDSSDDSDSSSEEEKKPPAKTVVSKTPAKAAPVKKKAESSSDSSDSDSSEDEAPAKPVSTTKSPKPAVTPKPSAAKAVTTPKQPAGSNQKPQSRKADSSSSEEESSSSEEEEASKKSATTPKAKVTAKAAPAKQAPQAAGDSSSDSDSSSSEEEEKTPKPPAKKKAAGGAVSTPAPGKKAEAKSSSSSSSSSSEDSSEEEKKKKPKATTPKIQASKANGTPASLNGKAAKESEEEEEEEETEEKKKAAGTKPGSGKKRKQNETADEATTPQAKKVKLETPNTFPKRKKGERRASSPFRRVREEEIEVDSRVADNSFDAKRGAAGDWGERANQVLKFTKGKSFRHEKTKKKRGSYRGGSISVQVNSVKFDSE
UniProt E9Q4P1: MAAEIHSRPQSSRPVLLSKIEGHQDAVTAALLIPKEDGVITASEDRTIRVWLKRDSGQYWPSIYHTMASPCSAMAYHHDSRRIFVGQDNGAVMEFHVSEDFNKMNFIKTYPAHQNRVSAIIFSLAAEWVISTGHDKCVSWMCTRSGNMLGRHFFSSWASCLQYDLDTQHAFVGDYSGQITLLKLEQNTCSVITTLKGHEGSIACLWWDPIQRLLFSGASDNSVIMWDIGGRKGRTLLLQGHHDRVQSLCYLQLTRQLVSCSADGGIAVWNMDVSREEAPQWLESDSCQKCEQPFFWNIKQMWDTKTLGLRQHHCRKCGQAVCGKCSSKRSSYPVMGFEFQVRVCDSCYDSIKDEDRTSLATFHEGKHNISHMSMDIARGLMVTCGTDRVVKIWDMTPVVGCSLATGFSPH

The list shows a part of the results. Most entries show no effect beyond the scatter of the controls.

Compound in the assay: CN[C@@H]1C[C@H]2O[C@@](C)([C@@H]1OC)n1c3ccccc3c3c4c(c5c6ccccc6n2c5c31)C(=O)NC4 [staurosporine]
Kind of assay: log2 fold change of pooled soluble protein (PISA), ligand vs vehicle (log2 ratio); higher = more thermally stabilized. The following applies: ligand concentration: 20 uM; assay format: PISA pool 52.9/55.5/58.6 C.
Consider UniProt E9Q0S6, for which the “log2 fold change of pooled soluble protein” value (“log2 fold change” for short) was -0.0736.

For the target UniProt A2BH40, the “log2 fold change” value was -0.194.

On to UniProt A6X935, for which the “log2 fold change” value was 0.00931.

Regarding UniProt E9PYK3, the “log2 fold change” value turned out to be 0.101.

Take UniProt E9Q5K4: the “log2 fold change” value was -0.0919.

UniProt A2ALU4: the “log2 fold change” value is -0.0775.

Consider UniProt A2AWA9, for which the “log2 fold change” value is -0.142.

Turning to UniProt F8VPK0, the “log2 fold change” value is -0.152.

Regarding UniProt A2APT9, the “log2 fold change” value turned out to be 0.216.

Turning to A0A0G2JDV3, A0A0G2JDV3, the “log2 fold change” value was -0.00912.

Regarding UniProt A2ATU0, the “log2 fold change” value is -0.163.

In the case of UniProt A3KMN5, the “log2 fold change” value is -0.0312.

On to UniProt B1ARW8, for which the “log2 fold change” value was -0.332.

On to UniProt B1AZA5, for which the “log2 fold change” value is -0.0278.

For UniProt E9PV24, the “log2 fold change” value was -0.0953.

Regarding UniProt E9Q3L2, the “log2 fold change” value was -0.172.

In the case of UniProt B2RRE7, the “log2 fold change” value turned out to be 0.00395.

For UniProt B1AZP2, the “log2 fold change” value worked out at 0.0618.

Consider C0HKG5;C0HKG6, for which the “log2 fold change” value is 0.0439.

Regarding UniProt E9Q912, the “log2 fold change” value is -0.109.

In the case of UniProt A2AQ19, the “log2 fold change” value was -0.0341.

For the target UniProt A2A7S8, the “log2 fold change” value is -0.0146.

In the case of UniProt B1AY10, the “log2 fold change” value was -0.261.

Consider UniProt D3Z6Q9, for which the “log2 fold change” value was -0.0717.

For the target UniProt E9Q309, the “log2 fold change” value was -0.543.

For UniProt E9PVB5, the “log2 fold change” value was -0.149.

On to UniProt E9Q8G5, for which the “log2 fold change” value amounted to 0.0623.

On to UniProt B2RY56, for which the “log2 fold change” value worked out at 0.196.

Take UniProt E9Q137: the “log2 fold change” value came to 0.0908.

As to UniProt A2AS89, the “log2 fold change” value is -0.479.

Turning to UniProt E9Q5C9, the “log2 fold change” value was -0.0318.

UniProt E9Q6J5: the “log2 fold change” value was -0.0339.

On to UniProt E9Q4P1, for which the “log2 fold change” value is -0.0178.
